These are yes or no findings as the source states them, for the method shown. In cells and extracts the contact can be indirect. Some results given as binding are weak or reduced against the parent protein; the word gives no strength.
Biological target: WT G-CSFR/PDGFR chimeric receptor (human) (UniProt Q99062+P09619)
Assay: co-immunoprecipitation with Ab-X from G-CSF-stimulated transfected Rat-1 cells, anti-SHP-2 immunoblot

The chains behind the UniProt entries cited, without tags or fusion partners. Where a name states a change or a piece, a line headed by the entry shows the natural chain unless it says otherwise.
UniProt Q99062: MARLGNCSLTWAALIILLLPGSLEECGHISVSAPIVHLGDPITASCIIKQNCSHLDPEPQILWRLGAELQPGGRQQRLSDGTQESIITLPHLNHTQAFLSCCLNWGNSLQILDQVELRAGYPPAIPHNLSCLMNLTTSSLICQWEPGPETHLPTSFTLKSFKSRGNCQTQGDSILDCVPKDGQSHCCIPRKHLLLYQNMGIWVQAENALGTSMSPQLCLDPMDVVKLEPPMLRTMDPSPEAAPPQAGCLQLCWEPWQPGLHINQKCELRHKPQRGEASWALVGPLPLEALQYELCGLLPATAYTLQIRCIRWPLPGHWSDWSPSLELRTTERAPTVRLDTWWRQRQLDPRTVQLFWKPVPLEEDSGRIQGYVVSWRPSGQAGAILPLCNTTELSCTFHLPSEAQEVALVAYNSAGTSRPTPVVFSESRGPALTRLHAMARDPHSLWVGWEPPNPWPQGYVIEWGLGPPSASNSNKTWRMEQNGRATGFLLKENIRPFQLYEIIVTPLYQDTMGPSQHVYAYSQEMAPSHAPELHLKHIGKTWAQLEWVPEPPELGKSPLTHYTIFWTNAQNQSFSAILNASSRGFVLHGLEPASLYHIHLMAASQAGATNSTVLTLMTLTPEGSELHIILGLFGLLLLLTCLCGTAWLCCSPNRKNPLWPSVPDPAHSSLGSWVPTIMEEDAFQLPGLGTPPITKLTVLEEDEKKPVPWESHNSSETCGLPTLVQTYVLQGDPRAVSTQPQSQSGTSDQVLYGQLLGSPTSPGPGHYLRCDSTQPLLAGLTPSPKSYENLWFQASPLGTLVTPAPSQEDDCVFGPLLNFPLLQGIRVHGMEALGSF

binding: binds
Substance: SHP-2 (from UniProt P41499 2-593) (enzyme)
